The record followed here is PMC5142787.

Amino acid sequences for entries named in this document (tags omitted). A change or cut given only in a name is not applied to a line headed by its entry.
UniProt A8B326: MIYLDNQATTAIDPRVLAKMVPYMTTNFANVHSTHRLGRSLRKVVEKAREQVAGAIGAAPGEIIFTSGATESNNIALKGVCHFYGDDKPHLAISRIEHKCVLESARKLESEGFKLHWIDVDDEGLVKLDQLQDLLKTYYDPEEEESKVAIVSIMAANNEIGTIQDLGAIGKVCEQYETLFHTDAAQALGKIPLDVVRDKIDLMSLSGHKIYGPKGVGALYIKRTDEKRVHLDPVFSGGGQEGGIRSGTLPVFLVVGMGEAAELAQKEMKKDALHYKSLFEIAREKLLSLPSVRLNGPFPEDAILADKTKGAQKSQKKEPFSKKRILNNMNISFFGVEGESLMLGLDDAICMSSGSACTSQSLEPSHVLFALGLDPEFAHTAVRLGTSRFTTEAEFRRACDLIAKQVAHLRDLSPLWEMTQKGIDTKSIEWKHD
UniProt A8B2J8: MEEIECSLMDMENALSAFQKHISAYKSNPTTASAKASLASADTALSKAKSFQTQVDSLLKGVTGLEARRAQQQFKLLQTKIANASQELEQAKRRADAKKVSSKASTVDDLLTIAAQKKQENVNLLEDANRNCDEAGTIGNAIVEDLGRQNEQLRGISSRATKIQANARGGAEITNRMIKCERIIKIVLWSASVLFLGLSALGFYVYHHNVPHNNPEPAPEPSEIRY
UniProt A8B8F2: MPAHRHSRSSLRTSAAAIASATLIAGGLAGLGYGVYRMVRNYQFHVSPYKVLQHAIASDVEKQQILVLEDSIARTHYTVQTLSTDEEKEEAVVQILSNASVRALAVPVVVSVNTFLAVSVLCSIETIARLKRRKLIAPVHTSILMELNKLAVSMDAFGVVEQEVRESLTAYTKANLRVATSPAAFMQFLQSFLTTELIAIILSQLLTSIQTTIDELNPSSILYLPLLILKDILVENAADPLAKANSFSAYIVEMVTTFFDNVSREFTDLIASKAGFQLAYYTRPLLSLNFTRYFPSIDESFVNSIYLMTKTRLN
UniProt A8B2G6: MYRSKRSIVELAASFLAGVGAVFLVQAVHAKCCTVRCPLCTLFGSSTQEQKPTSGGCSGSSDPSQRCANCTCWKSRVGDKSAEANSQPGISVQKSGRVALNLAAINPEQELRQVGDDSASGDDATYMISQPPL
UniProt A8B4Q8: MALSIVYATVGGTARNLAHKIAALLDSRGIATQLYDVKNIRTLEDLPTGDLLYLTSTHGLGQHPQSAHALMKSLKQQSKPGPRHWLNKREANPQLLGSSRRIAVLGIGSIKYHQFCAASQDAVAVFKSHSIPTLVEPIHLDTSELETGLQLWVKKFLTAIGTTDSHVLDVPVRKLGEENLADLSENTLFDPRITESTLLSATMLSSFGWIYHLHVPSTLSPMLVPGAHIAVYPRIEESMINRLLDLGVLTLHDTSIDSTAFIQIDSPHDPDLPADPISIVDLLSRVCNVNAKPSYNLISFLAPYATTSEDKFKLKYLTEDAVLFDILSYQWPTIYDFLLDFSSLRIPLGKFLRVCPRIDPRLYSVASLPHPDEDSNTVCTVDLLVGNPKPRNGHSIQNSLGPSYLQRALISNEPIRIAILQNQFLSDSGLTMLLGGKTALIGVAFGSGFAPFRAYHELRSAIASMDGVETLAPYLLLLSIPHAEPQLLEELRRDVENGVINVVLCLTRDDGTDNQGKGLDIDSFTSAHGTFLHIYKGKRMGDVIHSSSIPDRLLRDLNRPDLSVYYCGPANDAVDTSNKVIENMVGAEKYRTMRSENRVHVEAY
UniProt A0A644F9M5: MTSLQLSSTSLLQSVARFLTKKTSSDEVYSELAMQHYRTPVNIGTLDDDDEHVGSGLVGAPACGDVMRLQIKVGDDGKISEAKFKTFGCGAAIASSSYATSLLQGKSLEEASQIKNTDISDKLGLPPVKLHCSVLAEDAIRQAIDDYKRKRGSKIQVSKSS
UniProt A8BI30: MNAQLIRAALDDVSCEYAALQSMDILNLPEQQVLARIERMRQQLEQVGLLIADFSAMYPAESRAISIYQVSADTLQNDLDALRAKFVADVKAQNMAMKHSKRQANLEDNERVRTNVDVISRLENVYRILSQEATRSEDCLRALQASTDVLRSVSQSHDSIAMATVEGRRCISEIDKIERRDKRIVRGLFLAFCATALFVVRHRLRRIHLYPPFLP
UniProt A8BBD0: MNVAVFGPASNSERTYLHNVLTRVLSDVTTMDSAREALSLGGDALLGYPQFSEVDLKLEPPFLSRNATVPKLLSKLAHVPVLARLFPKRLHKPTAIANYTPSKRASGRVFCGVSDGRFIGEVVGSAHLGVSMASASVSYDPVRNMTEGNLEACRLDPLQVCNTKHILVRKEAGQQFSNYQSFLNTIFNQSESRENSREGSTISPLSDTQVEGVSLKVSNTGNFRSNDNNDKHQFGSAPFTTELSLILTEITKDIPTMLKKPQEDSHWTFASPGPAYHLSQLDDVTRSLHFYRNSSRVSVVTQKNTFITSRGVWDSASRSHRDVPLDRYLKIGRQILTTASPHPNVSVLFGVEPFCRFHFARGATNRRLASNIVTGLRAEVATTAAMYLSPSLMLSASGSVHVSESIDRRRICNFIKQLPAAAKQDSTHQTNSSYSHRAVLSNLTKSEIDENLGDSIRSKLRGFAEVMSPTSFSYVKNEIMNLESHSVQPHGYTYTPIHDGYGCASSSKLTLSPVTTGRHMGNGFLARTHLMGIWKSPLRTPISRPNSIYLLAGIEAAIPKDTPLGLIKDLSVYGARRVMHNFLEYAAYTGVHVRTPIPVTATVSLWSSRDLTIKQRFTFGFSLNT
UniProt A8BFG3: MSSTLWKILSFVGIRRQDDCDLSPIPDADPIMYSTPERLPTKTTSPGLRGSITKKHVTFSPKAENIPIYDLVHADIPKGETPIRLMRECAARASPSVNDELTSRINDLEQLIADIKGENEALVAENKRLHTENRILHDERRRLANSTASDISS
UniProt A8BRP6: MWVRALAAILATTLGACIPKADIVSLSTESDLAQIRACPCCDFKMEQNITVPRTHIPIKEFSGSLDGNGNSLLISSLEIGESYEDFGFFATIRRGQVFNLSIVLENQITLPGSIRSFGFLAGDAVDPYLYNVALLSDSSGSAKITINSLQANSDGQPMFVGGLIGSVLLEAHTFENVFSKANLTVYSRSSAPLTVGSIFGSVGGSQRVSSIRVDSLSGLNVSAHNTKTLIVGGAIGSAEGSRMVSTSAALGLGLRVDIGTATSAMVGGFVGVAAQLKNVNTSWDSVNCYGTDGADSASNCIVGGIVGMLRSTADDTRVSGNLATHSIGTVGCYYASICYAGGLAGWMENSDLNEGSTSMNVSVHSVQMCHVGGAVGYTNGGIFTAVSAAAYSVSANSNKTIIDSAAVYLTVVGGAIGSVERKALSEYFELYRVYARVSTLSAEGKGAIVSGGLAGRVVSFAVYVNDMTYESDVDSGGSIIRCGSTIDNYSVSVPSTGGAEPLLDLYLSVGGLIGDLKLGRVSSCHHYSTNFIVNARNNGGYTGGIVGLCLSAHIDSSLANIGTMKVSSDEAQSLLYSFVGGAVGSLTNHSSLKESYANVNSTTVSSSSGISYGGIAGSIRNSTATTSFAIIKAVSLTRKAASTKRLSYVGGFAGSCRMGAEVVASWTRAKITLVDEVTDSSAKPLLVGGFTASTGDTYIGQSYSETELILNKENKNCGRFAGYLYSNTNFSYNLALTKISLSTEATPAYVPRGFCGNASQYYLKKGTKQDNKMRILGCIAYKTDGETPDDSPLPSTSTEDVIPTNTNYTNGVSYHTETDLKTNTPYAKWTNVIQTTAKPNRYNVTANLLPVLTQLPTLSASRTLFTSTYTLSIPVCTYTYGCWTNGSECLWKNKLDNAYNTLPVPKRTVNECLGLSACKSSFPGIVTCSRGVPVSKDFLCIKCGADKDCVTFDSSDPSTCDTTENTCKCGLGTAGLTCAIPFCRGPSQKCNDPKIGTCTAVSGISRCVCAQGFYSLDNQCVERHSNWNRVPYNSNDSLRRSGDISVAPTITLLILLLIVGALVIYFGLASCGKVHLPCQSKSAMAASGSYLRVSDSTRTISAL
UniProt A8B690: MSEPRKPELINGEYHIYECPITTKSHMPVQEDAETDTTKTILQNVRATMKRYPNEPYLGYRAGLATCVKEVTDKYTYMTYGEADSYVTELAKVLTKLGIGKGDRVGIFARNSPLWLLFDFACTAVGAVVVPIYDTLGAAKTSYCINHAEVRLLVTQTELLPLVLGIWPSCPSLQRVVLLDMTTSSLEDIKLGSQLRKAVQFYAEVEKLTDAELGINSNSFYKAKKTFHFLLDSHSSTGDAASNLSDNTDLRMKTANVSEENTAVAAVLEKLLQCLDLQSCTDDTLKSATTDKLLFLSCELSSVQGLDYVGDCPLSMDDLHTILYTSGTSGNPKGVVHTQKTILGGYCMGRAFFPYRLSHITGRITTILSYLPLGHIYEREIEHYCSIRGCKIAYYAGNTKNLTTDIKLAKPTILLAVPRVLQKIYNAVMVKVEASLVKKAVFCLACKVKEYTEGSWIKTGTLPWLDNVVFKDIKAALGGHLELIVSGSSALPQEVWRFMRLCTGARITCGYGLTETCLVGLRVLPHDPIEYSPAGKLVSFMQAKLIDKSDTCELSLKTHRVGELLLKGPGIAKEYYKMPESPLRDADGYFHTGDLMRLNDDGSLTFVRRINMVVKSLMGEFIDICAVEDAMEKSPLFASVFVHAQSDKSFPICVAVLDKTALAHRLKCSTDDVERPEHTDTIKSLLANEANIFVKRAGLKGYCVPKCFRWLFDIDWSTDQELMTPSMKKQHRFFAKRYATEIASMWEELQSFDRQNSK
UniProt A8B6Z3: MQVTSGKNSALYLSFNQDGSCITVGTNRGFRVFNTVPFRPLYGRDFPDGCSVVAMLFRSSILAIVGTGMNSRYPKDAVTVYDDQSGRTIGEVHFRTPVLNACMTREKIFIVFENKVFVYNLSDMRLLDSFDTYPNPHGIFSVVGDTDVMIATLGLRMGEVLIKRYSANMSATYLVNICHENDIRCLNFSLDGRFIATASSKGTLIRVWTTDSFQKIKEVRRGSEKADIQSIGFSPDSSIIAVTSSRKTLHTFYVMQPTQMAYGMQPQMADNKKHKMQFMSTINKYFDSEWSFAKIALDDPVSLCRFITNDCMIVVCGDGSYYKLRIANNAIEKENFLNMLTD
UniProt A8BE60: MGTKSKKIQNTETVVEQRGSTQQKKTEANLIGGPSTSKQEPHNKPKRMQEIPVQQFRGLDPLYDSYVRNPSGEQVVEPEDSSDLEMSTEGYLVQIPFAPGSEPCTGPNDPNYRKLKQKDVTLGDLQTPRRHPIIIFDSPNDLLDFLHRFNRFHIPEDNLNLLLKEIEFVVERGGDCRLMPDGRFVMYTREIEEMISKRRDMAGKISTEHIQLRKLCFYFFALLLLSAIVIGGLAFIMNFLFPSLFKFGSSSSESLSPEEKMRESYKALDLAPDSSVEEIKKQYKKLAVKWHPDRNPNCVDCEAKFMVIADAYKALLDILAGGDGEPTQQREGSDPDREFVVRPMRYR
UniProt E2RU02: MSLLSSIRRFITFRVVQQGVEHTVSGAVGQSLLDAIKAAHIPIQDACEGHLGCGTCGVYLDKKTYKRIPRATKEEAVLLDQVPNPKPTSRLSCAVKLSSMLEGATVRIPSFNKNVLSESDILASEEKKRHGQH
UniProt A8BBT5: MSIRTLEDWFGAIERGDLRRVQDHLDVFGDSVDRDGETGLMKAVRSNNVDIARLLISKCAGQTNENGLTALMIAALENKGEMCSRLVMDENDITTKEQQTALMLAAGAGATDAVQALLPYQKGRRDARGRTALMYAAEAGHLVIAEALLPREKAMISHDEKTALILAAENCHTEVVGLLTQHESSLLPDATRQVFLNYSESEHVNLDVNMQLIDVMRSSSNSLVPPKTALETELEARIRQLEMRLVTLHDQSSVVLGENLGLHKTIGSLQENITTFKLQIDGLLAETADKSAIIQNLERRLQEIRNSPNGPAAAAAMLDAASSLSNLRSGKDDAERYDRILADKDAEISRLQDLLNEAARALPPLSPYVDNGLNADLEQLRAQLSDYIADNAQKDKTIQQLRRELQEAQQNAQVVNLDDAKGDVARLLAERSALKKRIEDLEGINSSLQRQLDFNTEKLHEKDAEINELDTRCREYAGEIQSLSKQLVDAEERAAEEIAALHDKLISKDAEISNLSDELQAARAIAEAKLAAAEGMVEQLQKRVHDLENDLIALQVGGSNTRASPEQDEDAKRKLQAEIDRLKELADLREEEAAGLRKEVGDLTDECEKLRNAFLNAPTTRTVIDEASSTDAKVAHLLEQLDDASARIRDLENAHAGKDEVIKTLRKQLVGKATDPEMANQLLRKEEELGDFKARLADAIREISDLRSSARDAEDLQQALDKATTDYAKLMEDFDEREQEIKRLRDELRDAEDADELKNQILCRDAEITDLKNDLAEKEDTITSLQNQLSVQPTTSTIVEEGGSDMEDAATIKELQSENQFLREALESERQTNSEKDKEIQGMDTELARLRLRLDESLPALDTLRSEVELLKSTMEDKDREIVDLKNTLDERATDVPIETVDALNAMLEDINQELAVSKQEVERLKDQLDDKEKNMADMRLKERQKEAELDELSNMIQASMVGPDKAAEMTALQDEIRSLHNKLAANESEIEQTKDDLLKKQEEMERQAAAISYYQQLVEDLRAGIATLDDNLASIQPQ

These are yes or no findings as the source states them, for the method shown. Binding seen in cells or lysates may run through a third protein. A yes stands for co-enrichment or nearness to the bait. Other partners may have been found.

What all share (test): affinity purification with mass spectrometry; co-IP with limited cross-linking: trophozoites expressing C-terminally HA-tagged bait fixed in 2.25% formaldehyde, RIPA lysis and sonication, anti-HA agarose beads at 4°C, eluate on SDS-PAGE and LC-MS/MS; hits filtered against a control co-IP from non-transgenic WB cells; high, medium or relaxed stringency as told
Assay [1] deals with GlIscS-HA (HA-tagged cysteine desulfurase) (G. lamblia) (UniProt A8B326).
For assay [2], the target named is HA-tagged Qb-SNARE 4 (MOMTiP-7, Gl50803_5785) (G. lamblia) (UniProt A8B2J8).
The target in assay [3] is HA-tagged MOMTiP-3 (Gl50803_14939) (G. lamblia) (UniProt A8B8F2).
Assay [4] has as its target GlTom40-HA (C-terminally HA-tagged G. lamblia Tom40 homologue) (G. lamblia) (UniProt D3KGX1).
The target in assay [5] is HA-tagged MOMTiP-4 (Gl50803_9296) (G. lamblia) (UniProt A8BBQ8).
Assay [6] addresses HA-tagged MOMTiP-1 (Gl50803_29147) (G. lamblia) (UniProt A8B2G6).

As for “G. lamblia dynamin related protein (GlDRP) (ORF Gl50803_14373) (from UniProt E2RU04)”, the binding entry in assay [1], in assay [2], in assay [3], in assay [4], in assay [5] and in assay [6] was “binds” throughout.

For the substance “G. lamblia oxidoreductase 1 (ORF Gl50803_91252) (from UniProt A8B4Q8)”, the binding result in assay [1], in assay [3], in assay [4] and in assay [6] was “binds” each time.

Turning to Gl50803_17276 (from UniProt D3KGB2), the binding entry in assay [6] is reported as “binds”.

On to GlIscA (from UniProt A8BCH8), for which the binding result in assay [5] is recorded as “binds”.

Consider “GlIscU (NifU-like protein; ORF Gl50803_15196) (from UniProt A0A644F9M5)”, for which the binding entry in assay [1], in assay [4] and in assay [6] was “binds” in each case.

“GlQb-SNARE 3 (putative Sec20, ORF Gl50803_5161) (from UniProt A8BI30)”: the binding entry in assay [4] is reported as “binds”.

Consider “GlTom40 (endogenous) (from UniProt D3KGX1)”, for which the binding result in assay [1], in assay [2], in assay [3], in assay [5] and in assay [6] was “binds” in each case.

With “MOMTiP-1 (endogenous) (from UniProt A8B2G6)”, the binding entry in assay [2], in assay [3] and in assay [4] was “binds” in each case.

With MOMTiP-2 (from UniProt A8BBD0), the binding result in assay [2], in assay [3] and in assay [4] was “binds” throughout.

For the substance “MOMTiP-3 (endogenous) (from UniProt A8B8F2)”, the binding entry in assay [2], in assay [4] and in assay [6] was “binds” in each case.

“MOMTiP-4 (endogenous) (from UniProt A8BBQ8)”: the binding result in assay [4] is listed as “binds”.

As for MOMTiP-5 (from UniProt A8BFG3), the binding entry in assay [2] and in assay [4] was “binds” each time.

Consider MOMTiP-6 (from UniProt A8B8T7), for which the binding entry in assay [4] was “binds”.

As to “MOMTiP-7 (Qb-SNARE 4) (endogenous) (from UniProt A8B2J8)”, the binding result in assay [4] and in assay [6] was “binds” in each case.

With MOMTiP-8 (from UniProt A8BNI9), the binding result in assay [2] and in assay [4] was “binds” in each case.

On to MOMTiP-9 (from UniProt A8BRP6), for which the binding result in assay [2], in assay [3] and in assay [4] was “binds” in each case.

For MOMTiP-10 (from UniProt A8BZ59), the binding result in assay [4] was “binds”.

Consider MOMTiP-11 (from UniProt A8B690), for which the binding result in assay [4] was “binds”.

As for MOMTiP-12 (from UniProt A8B5M1), the binding result in assay [4] is “binds”.

As for MOMTiP-13 (from UniProt A8B6Z3), in assay [4], the binding entry is recorded as “binds”.

As for “Type III DnaJ protein Gl50803_9751 (from UniProt A8BE60)”, the binding entry in assay [2] was “binds”.

Turning to “[2Fe-2S] ferredoxin (Gl50803_27266) (from UniProt E2RU02)”, the binding result in assay [1] and in assay [6] was “binds” each time.

For the substance “axoneme-associated GASP-180 protein Gl50803_16745 (from UniProt A8BBT5)”, the binding entry in assay [6] is reported as “binds”.

With “chaperonin 60 (Cpn60; ORF Gl50803_103891) (from UniProt E2RTS2)”, the binding entry in assay [1], in assay [4] and in assay [6] was “binds” throughout.

In the case of “cysteine desulfurase (IscS; Gl50803_14519) (endogenous) (from UniProt A8B326)”, the binding result in assay [5] and in assay [6] was “binds” in each case.

“mitochondrial HSP70 (ORF Gl50803_14581) (from UniProt Q9BKB8)”: the binding entry in assay [1], in assay [4], in assay [5] and in assay [6] was “binds” each time.
